# Reference: PubChem BioAssay AID504467 (National Center for Advancing Translational Sciences (NCATS), 2011)
# In all, about 330,000 compounds went through this assay and about 7,700 (2.3%) were called active. The inconclusive results got no clear call from the source; some entries with a clear call stand among them for comparison. Calls follow the shape of the dose curve; as a rule, active = well fitted inhibition curve with a large enough effect; inconclusive = small, poorly fitted or top-dose-only effect, or effect the other way; inactive = flat fitted curve, though single readings scatter. Where the call is inconclusive, the potency comes from a doubtful curve fit.
# Assay: qHTS screen for small molecules that inhibit ELG1-dependent DNA repair in human embryonic kidney (HEK293T) cells expressing luciferase-tagged ELG1; also: nearly all actives have a fitted effect of over 55% in size
# Conditions: HEK293T ELG1-luciferase reporter, luminescence, 16 h, DNA damage induced by 5-fluorouridine; series mostly up to 46.1 µM
# How it was run: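 Luminescence from the luciferase reporter, measured 30 min after ONE-Glo reagent at room temperature, was the read-out. Beforehand, 2,000 cells per well were exposed for 16 hr at 37 °C to 5-fluorouridine together with compound or vehicle.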
# Potency is read from the fitted curve at half-maximal effect.
row,SMILES,Potency
1,COC(=O)c1cc(OC)c(OC)cc1NC(=O)c1ccc(OC)cc1,"inconclusive: 10.3 µM [inhibitor, partial curve]"
2,Cc1ccccc1-c1nnc(-c2cccs2)o1,"inconclusive: 20.6 µM [activator, partial curve]"
3,OC(c1ccccc1)(c1ccc(F)cc1)C(c1ccccc1)N1CCOCC1 (stereo unspecified),inactive
4,O=C(COc1ccc(Cl)cc1)Nc1ccc(N2CCN(C(=O)c3ccco3)CC2)cc1,inactive
5,O=C(CSCc1c(Cl)cccc1Cl)Nc1ccc2c(c1)OCCO2,inactive
6,COc1ccc(NC(=S)Nc2ccccc2)cc1,"inconclusive: 15.8 µM [activator, partial curve, poor fit]"
7,Cc1ccc2oc(=O)n(CCOc3ccccc3Cl)c2c1,inactive
8,S=C(NCCc1ccccc1)NCC1CCCO1 (stereo unspecified),"inconclusive: 20.6 µM [activator, partial curve]"
9,CCOC(=O)c1cnc(SCC(=O)Nc2ccc(NC(C)=O)c(OC)c2)nc1N,inactive
10,CCc1ccc(S(=O)(=O)N2CCN(C(=O)C3CCN(C(C)=O)CC3)CC2)cc1,inactive
11,CNc1sc(C(=O)c2ccccc2F)c(N)c1-c1nc2ccccc2s1,"inconclusive: 20.6 µM [activator, partial curve, poor fit]"
12,CCN(CC(=O)Nc1ccccc1C(F)(F)F)C(=O)CCOc1ccccc1C,"inconclusive: 0.58 µM [activator, single point]"
13,O=C(OCC(=O)N1CCCc2ccccc21)c1cc(S(=O)(=O)N2CCOCC2)ccc1O,inactive
14,COc1cc(/C=C2\SC(N)=NC2=O)cc(Br)c1O,"inconclusive: 3.98 µM [activator, full curve, poor fit]"
15,CCCc1cc(C(=O)Nc2ccc(C(C)=O)cc2)no1,"inconclusive: 20.6 µM [activator, partial curve]"
16,CN1/C(=c2/s/c(=C3/C(=O)N(c4ccccc4)NC3=Nc3ccccc3)n(C)c2=O)C(C)(C)c2ccccc21,"inconclusive: 6.51 µM [inhibitor, partial curve]"
17,CSc1cccc(NC(=O)C2CCCN(S(=O)(=O)c3cnc[nH]3)C2)c1 (stereo unspecified),"inconclusive: 18.4 µM [inhibitor, partial curve, poor fit]"
18,COc1cc(NS(=O)(=O)c2ccc(C)cc2C)cc(OC)c1OC,active: 10.3 µM
19,COc1ccc2cc(C(c3nnnn3Cc3ccc(F)cc3)N3CCCCCC3)c(=O)[nH]c2c1 (stereo unspecified),"inconclusive: 25.9 µM [inhibitor, single point]"
20,CCOc1cc(N2CCOCC2)c(OCC)cc1NC(=O)c1ccc2ncsc2c1,"inconclusive: 16.4 µM [inhibitor, partial curve]"
21,CCCc1[nH]nc2c1C(C1CC=CCC1)C(C#N)=C(N)O2 (stereo unspecified),"inconclusive: 29.1 µM [inhibitor, single point]"
22,COc1ccccc1CN(Cc1cc2cc(C)cc(C)c2[nH]c1=O)Cc1nnnn1CC1CCCO1 (stereo unspecified),"inconclusive: 32.6 µM [inhibitor, partial curve, poor fit]"
23,O=C(CC(Nc1ccc(F)cc1)c1ccccc1)c1ccccc1 (stereo unspecified),"inconclusive: 23.1 µM [activator, single point]"

row,SMILES,Potency
1,COC(=O)CN(C)C(=O)c1ccc(OC2CCN(S(=O)(=O)N(C)C)CC2)cc1,"inconclusive: 18.3 µM [activator, single point]"
2,O=c1ccnc(Nc2ccc3c(c2)OCCO3)[nH]1,inactive
3,CCOc1ccc(N(CC(=O)Nc2ccc(OC)cc2OC)S(=O)(=O)c2c(C)[nH]c(=O)[nH]c2=O)cc1,inactive
4,O=C(NCC1CCCO1)c1cc(-c2ccccc2)nc2ccccc12 (stereo unspecified),inactive
5,CCc1cc(C(=O)Cc2ccccn2)c(O)cc1O,"inconclusive: 7.3 µM [inhibitor, partial curve, poor fit]"
6,Cn1c(=O)c2c(nc(CO)n2C)n(C)c1=O,inactive
7,Cc1ccccc1NC(=O)CSc1nnc(NC(=O)c2ccco2)s1,inactive
8,CN(C)c1cccc(/C=C(\C#N)c2ccccc2)c1,"inconclusive: 5.17 µM [activator, partial curve]"
9,COC(=O)Cn1ccc(N(C)C)c(C#N)c1=O,inactive
10,CN(C)/N=C/c1c(O)ccc2ccccc12,inactive
11,COc1ccc(CN(C)C(=O)C(Cc2ccccc2)NC(=O)c2ccccc2)cc1F (stereo unspecified),active: 14.6 µM
12,Cc1ccnc(NC(=O)c2ccc(NC(=O)c3ccco3)cc2)c1,"inconclusive: 8.2 µM [activator, partial curve]"
13,O=C(CCOc1ccccc1)Nc1ccc(Br)cc1,"inconclusive: 18.3 µM [activator, partial curve]"
14,Cc1ccccc1Cn1nnc(-c2cccc(C(=O)O)c2)n1,"inconclusive: 2.06 µM [activator, partial curve]"
15,O=C(Cc1ccccc1F)c1ccc(O)cc1O,"inconclusive: 29.1 µM [activator, single point]"
16,Cc1cc(C)c(C)c(S(=O)(=O)N2CCC(C(=O)Nc3ccncc3)CC2)c1C,inactive
17,Cc1ccn2cc(-c3cccc([N+](=O)[O-])c3)nc2c1,"inconclusive: 1.3 µM [activator, partial curve]"
18,O=C(COc1ccccc1)Nc1ccccc1Oc1ccccc1,inactive
19,COc1cc(/C=N/NC(=O)Nc2ccccc2)ccc1OC(C)=O,"inconclusive: 11.6 µM [activator, partial curve]"
20,COCCC(C(=O)Oc1c(C(C)(C)C)cc(C)cc1C(C)(C)C)c1ccccc1 (stereo unspecified),"inconclusive: 1.3 µM [activator, full curve, poor fit]"
21,CC(C)(C)C(=O)Nc1ccc(C(=O)Nc2cc(NC(=O)c3ccc(NC(=O)C(C)(C)C)cc3)cc(C(=O)O)c2)cc1,"inconclusive: 29.1 µM [activator, single point]"
22,CCOc1ccc(Oc2nc(Nc3ccc(C)cc3)nc(N(C)C)n2)nn1,"inconclusive: 9.2 µM [inhibitor, single point]"
23,Cc1cc(C)n(CC(=O)NC2CCCc3c2cnn3-c2ccc(C)c(C)c2)n1 (stereo unspecified),"inconclusive: 10.3 µM [activator, partial curve, poor fit]"

# A portion of the results above, as a working copy:
row,SMILES,Potency
16,Cc1cc(C)c(C)c(S(=O)(=O)N2CCC(C(=O)Nc3ccncc3)CC2)c1C,inactive
17,Cc1ccn2cc(-c3cccc([N+](=O)[O-])c3)nc2c1,"inconclusive: 1.3 µM [activator, partial curve]"
18,O=C(COc1ccccc1)Nc1ccccc1Oc1ccccc1,inactive
